Protein sequences, listed by entry. Tags and fused reporters are not part of them. Lines headed by an entry give the natural chain unless they say otherwise; changes in a name come on top.
UniProt Q01860: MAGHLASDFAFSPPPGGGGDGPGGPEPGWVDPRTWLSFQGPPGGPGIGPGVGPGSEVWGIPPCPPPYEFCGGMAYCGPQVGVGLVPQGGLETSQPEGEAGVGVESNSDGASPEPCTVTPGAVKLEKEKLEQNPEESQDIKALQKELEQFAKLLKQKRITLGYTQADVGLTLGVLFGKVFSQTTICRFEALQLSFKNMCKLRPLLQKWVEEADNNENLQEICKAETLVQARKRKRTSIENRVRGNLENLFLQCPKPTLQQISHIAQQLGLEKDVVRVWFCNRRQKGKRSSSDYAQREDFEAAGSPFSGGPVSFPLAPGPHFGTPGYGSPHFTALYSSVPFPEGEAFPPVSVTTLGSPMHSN

In publication PMC12990707, “Multiple novel hepatocellular carcinoma signature genes are commonly controlled by the master pluripotency factor OCT4”:

Molecular target: OCT4 (endogenous) (UniProt Q01860)
Experiment: EMSA
Settings: Huh7 NTC vs OCT4-KO nuclear extract, OCT4 with unnamed partners; LightShift chemiluminescent EMSA kit (Thermo 20148) per manufacturer; pH and temperature not stated; protein in an extract; label: 5' biotin on both strands

## GGGAATTACCTGCGTTTTCACTGACATGCATCTCTCTTACCAGTCTGACCCAGATGGGG (double strand) [TRIP13 probe]
  binding result: binds

Construct, isoform or probe ends are uncertain for at least one entry. Where cells or extracts were used, other partners may take part.
